PubChem BioAssay AID1671190 (National Center for Advancing Translational Sciences (NCATS), 2021)
The campaign covered roughly 580,000 compounds. About 6,100 (1.1%) were called active. The shares of active, inactive and inconclusive entries below differ from those in the screen. Calls come from the whole dose curve; as a rule, active = well fitted inhibition curve with a large enough effect; inconclusive = small, poorly fitted or top-dose-only effect, or another doubt; inactive = no such curve, though single readings can be large or run the other way. Potencies beside an inconclusive call are fits to weak or partial responses and may not hold up.

Sequences of proteins named here, by UniProt entry; tags and fusion partners are left off. A change or cut given only in a name is not applied to a line headed by its entry.
UniProt P18054: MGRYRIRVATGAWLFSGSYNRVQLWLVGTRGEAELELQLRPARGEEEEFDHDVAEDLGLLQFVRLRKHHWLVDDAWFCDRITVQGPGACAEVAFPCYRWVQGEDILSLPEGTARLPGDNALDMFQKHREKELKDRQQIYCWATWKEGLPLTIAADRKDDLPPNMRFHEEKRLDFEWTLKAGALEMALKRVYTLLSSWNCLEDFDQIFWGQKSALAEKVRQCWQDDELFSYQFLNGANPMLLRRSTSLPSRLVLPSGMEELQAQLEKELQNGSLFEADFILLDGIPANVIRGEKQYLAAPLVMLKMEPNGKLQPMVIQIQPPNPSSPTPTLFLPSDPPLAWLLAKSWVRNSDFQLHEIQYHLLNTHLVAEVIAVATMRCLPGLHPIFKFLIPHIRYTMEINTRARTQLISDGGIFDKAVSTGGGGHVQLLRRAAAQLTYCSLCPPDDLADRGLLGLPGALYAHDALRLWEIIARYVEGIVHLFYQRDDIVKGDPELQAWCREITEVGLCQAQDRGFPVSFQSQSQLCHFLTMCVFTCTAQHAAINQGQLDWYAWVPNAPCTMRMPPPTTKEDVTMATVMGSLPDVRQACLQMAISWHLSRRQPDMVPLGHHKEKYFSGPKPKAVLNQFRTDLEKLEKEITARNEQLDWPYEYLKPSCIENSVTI

The molecules below were run against Polyunsaturated fatty acid lipoxygenase ALOX12 (Homo sapiens) (UniProt P18054) (assay: Primary qHTS assay for inhibitors of human arachidonate 12S-lipoxygenase (ALOX12): Round 2). Settings: purified 12hLO, xylenol orange hydroperoxide absorbance; activity change, negative = inhibition: at 108 µM (top of the series) unless noted.
How it was run: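 Hydroperoxide product was detected by ferrous iron/xylenol orange as the 573 to 405 nm absorbance ratio. Arachidonic acid at 40 uM (final) was turned over for 30 min at room temperature by 150 nM human 12hLO, pH 7.0 Hepes buffer, after 15 min compound preincubation.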
% is set by controls: 0 for no effect and ±100 for the full control effect; potency is the fitted concentration of half-maximal effect.

Row | Compound | Potency | activity change, negative = inhibition
1 | Cc1c(/C=C2\NC(=O)NC2=O)c2ccccc2n1C | inconclusive: 89.1 µM [inhibitor, single point] | 
2 | CC(C)Oc1cc(NC(=O)CS(=O)(=O)CC(=O)N(C)C)c(Cl)cc1Cl | inconclusive: 158 µM [inhibitor, partial curve, poor fit] | 
3 | COc1ccc(S(=O)(=O)Nc2ccc3c(c2)sc(=O)n3C)cc1Cl | inconclusive: 50.1 µM [inhibitor, partial curve, poor fit] | 
4 | CCN(c1ccccc1)S(=O)(=O)c1ccc(OC)c(NC(=O)CCc2nc3ccccc3c(=O)[nH]2)c1 |  | inactive: -16.1%
5 | O=C(NCc1cnn(-c2ccccc2)c1)C1CCN(S(=O)(=O)c2ccccc2C(F)(F)F)CC1 |  | inactive: 10.7%
6 | Cc1nc(-c2cccnc2)ncc1C(=O)N1CC[C@](C)(O)C(C)(C)C1 | inconclusive: 7.94 µM [inhibitor, partial curve, poor fit] | 
7 | CN[C@@H](CO)C(=O)NC[C@H]1O[C@@H](n2cnc3c(=O)[nH]c(N)nc32)[C@H](O)[C@@H]1O | inconclusive: 39.8 µM [inhibitor, single point] | 
8 | CCOc1ccc(N(C(=O)c2snc(C(N)=O)c2N)C(C(=O)NCC2CCCO2)c2ccco2)cc1 (centres undefined) |  | inactive: -3.9%
9 | Cc1ccc(CSCCNS(C)(=O)=O)cc1 | inconclusive: 56.2 µM [inhibitor, partial curve, poor fit] | 
10 | CCOc1cc(/C=C/c2ccc3cccc([N+](=O)[O-])c3n2)ccc1O | inconclusive: 50.1 µM [inhibitor, partial curve, poor fit] | 
11 | COc1ccccc1OCCN1C(=O)S/C(=C\c2ccco2)C1=O | inconclusive: 28.2 µM [inhibitor, single point] | 
12 | O=C(/C=C/c1ccco1)N1CCN(c2ccccc2)CC1 |  | inactive: -14.7%
13 | CCCCN1C(=O)CN(C2CCCCCC2)C(=O)C1c1ccc(OCC)c(OC)c1 (centres undefined) |  | inactive: -15.9%
14 | COc1cc2nc(CC(C)C)n(NC(=O)c3ccccc3)c(=O)c2cc1OC | inconclusive: 11.2 µM [inhibitor, partial curve, poor fit] | 
15 | O=S(=O)(CCN1CCN(C(c2ccccc2)c2ccccc2)CC1)C(F)(F)F |  | inactive: -8.28%
16 | Cc1cccc(N2CCN(c3ccc(N4C(=O)CCCC4=O)cc3[N+](=O)[O-])CC2C)c1 (centres undefined) | inconclusive: 7.08 µM [inhibitor, full curve] | 
17 | Cc1ccc(S(=O)(=O)NC[C@H]2O[C@@H](CO)[C@@H](O)[C@H]2N2CCN(c3ccc(F)cc3)CC2)cc1 | inconclusive: 15.8 µM [inhibitor, full curve] | 
18 | O=C(NCCCCCNC(=O)c1ccccn1)c1ccccn1 |  | inactive: 1.09%
19 | Cc1noc(C)c1S(=O)(=O)N1C[C@@H](Oc2cccnc2)C[C@H]1C(=O)N1CCOCC1 |  | inactive: 51.5%
20 | O=C(Nc1ccccc1)c1cc2ccccc2c(=O)s1 |  | inactive: -8.71%
21 | Cc1cc(NC(=O)NC(=O)c2ccc(F)cc2F)n[nH]1 |  | inactive: 0%
22 | CCc1nc(-c2c3n(c(=O)n(Cc4cccc(Br)c4)c2=O)CCCC3)no1 |  | inactive: 33.4%
23 | COc1ccc(N2CCN(C(=O)CSc3nnc(-c4cc5ccccc5cc4O)n3C)CC2)cc1 |  | inactive: 0%

Row | Compound | Potency | activity change, negative = inhibition
24 | CCN(CC)S(=O)(=O)c1cccc(-c2nnc(SCCOc3ccccc3)o2)c1 |  | inactive: 0%
25 | COc1cccc(NC(=O)CCc2nc(-c3ccc(C(C)(C)C)cc3)no2)c1 |  | inactive: -16.6%
26 | CCCCn1nc(C(=O)NCc2ccc(Cl)cc2)c2ccccc2c1=O |  | inactive: -6.46%
27 | COc1ccc(/C=C/C(=O)N2CCCc3ccccc32)cc1 |  | inactive: 1.86%
28 | Cc1ccc(/C=C/C(=O)NCc2cccs2)o1 |  | inactive: -1.36%
29 | CCc1noc(C)c1C(=O)N1C[C@@H](C(=O)O)C[C@@H](C(=O)N2CCCC2)C1 |  | inactive: 34.3%
30 | Cc1ccc(CSC(Nc2ccc(F)cc2)=C(C#N)C#N)cc1 | inconclusive: 31.6 µM [inhibitor, partial curve, poor fit] | 
31 | CCc1ccc(C(=O)c2cc3ccc(O)cc3oc2=O)cc1 | inconclusive: 35.5 µM [inhibitor, partial curve] | 
32 | O=C(O)c1ccccc1NC(=S)NC(=O)c1cccc2ccccc12 | active: 20 µM | 
33 | OCc1ccc(Cl)cc1Cl |  | inactive: -10.7% [at 22.9 µM]
34 | CCCCNc1nc(-c2ccc(OC)c(OC)c2)cs1 | inconclusive: 89.1 µM [inhibitor, single point] | 
35 | O=C(c1cccc(Cl)c1)N(Cc1cccs1)C1CCS(=O)(=O)C1 (centres undefined) | inconclusive: 39.8 µM [inhibitor, partial curve, poor fit] | 
36 | CCOCCCN(C(=O)c1snc(C(N)=O)c1N)C(C(=O)NC1CCCC1)c1ccc(F)cc1 (centres undefined) |  | inactive: -36.3%
37 | COC(=O)CNC(=O)c1cc(-c2cccs2)nc2ccccc12 | inconclusive: 79.4 µM [inhibitor, single point] | 
38 | N#CC1(c2ccc(-c3cccc(CN4CCOCC4)c3)cc2)CCCC1 |  | inactive: 39.9%
39 | O=c1c2c(n(CCOc3ccccc3)n1-c1ccccc1)CN(Cc1ccc(F)cc1)CC2 | inconclusive: 31.6 µM [inhibitor, full curve, poor fit] | 
40 | c1ccc2oc(CN3Cc4[nH]cnc4C[C@H]3c3nc(-c4cnccn4)no3)cc2c1 |  | inactive: 114% [at 176 µM]
41 | O=c1[nH]n2c(=O)c3c([nH]c2c1N=Nc1cccc(Cl)c1)CCC3 | inconclusive: 50.1 µM [inhibitor, partial curve, poor fit] | 
42 | COc1ccc(-c2nc(-c3ccc(S(=O)(=O)N4CCCC4)cc3)cs2)cc1 |  | inactive: 8.93%
43 | CCOCCCNC(=O)c1cccc(NC(=O)C2=C(C)OCCS2)c1 |  | inactive: 4.48%
44 | Cn1cccc1/C=C(\C#N)c1cccc(Br)c1 | inconclusive: 44.7 µM [inhibitor, partial curve, poor fit] | 
45 | CCOC(=O)/C(=C\c1cn(C)c2ccccc12)[N+](=O)[O-] | inconclusive: 44.7 µM [inhibitor, partial curve, poor fit] | 
46 | CC(=O)Nc1ccc(NC(=O)CSc2nnnn2C2CCCCC2)cc1 | inconclusive: 3.55 µM [inhibitor, full curve, poor fit] | 

Excerpt: compounds 43–44
Row | Compound | Potency | activity change, negative = inhibition
43 | CCOCCCNC(=O)c1cccc(NC(=O)C2=C(C)OCCS2)c1 |  | inactive: 4.48%
44 | Cn1cccc1/C=C(\C#N)c1cccc(Br)c1 | inconclusive: 44.7 µM [inhibitor, partial curve, poor fit] | 

Later entries

Row | Compound | Potency | activity change, negative = inhibition
47 | Cc1c(NC(=O)C(C)N2C(=O)C3C4C=CC(C4)C3C2=O)c(=O)n(-c2ccccc2)n1C (centres undefined) | inconclusive: 89.1 µM [inhibitor, single point] | 
48 | Cc1ccccc1SCC(=O)OCC(=O)Nc1ccc(N(C)C)cc1 | inconclusive: 112 µM [inhibitor, single point] | 
49 | CCn1nc(C)cc1C(=O)NCC1Cc2cccc(-c3cccnc3)c2O1 (centres undefined) |  | inactive: 2.94%
50 | COc1cccc(Cn2cnc3c(NS(=O)(=O)c4ccc(Cl)cc4Cl)c(C)c(C)cc32)c1 | inconclusive: 12.6 µM [inhibitor, full curve, poor fit] | 
51 | CCN(CC(=O)Nc1ccc(NC(C)=O)cc1)Cc1coc(-c2ccccc2)n1 |  | inactive: 53.5%
52 | CN(C)c1oc(-c2ccco2)nc1S(=O)(=O)c1ccc2c(c1)OCCO2 | inconclusive: 79.4 µM [inhibitor, partial curve, poor fit] | 
53 | O=C(c1cnc(Cc2c(Cl)cccc2Cl)[nH]c1=O)N1CCOCC1 | inconclusive: 12.6 µM [inhibitor, full curve, poor fit] | 
54 | C[C@@H](NC(=O)C1CCCCC1)c1c(-c2ccc(Cl)cc2)noc1C(=O)O | inconclusive: 31.6 µM [inhibitor, full curve, poor fit] | 
55 | O=C(Nc1c(-c2ccccc2)nc2ccccn12)c1ccccc1 |  | inactive: 7.64%
56 | CCOC(=O)C1=C(COC(=O)c2ccc(Cl)cc2[N+](=O)[O-])NC(=O)NC1C (centres undefined) | inconclusive: 39.8 µM [inhibitor, partial curve] | 
57 | Cc1ccc2nc(N(CCCN(C)C)C(=O)c3ccco3)sc2c1 | inconclusive: 56.2 µM [inhibitor, partial curve, poor fit] | 
58 | CN(C)c1ccc(CNC(=O)C2CCN(S(=O)(=O)c3ccc4c(c3)CCCC(=O)N4)CC2)cc1 |  | inactive: 7.94%
59 | Cc1cccc(NC(=O)C(NS(=O)(=O)c2ccc3c(c2)CCC(=O)N3)c2ccccc2)n1 (centres undefined) | inconclusive: 25.1 µM [inhibitor, partial curve, poor fit] | 
60 | CC(=O)Nc1cccc(NC(=S)Nc2cccc(Cl)c2C)c1 | inconclusive: 44.7 µM [inhibitor, partial curve, poor fit] | 
61 | O=C(/C=C/c1c(Cl)cccc1Cl)c1ccc(OC(F)F)cc1 | inconclusive: 50.1 µM [inhibitor, partial curve, poor fit] | 
62 | CN1/C(=C\C(=S)NC(=O)c2cccc(Br)c2)C(C)(C)c2ccccc21 | inconclusive: 50.1 µM [inhibitor, partial curve, poor fit] | 
63 | COc1cccc(N2C(=O)NC(=NC3CCCCC3)C23CCN(Cc2ccc(N(C)C)cc2)CC3)c1 | inconclusive: 50.1 µM [inhibitor, partial curve, poor fit] | 
64 | O=C(COc1ccc(F)cc1)Nc1nnc(C2CC2)s1 |  | inactive: 0.143%
65 | COCCn1c(-c2ccccc2)csc1=Nc1cccnc1 | inconclusive: 39.8 µM [inhibitor, partial curve, poor fit] | 
66 | Clc1ccc(-c2ccc(CNCC3CCNCC3)o2)c(Cl)c1 | inconclusive: 50.1 µM [inhibitor, partial curve, poor fit] | 
67 | C/C(=N/Nc1ccccc1)c1ccc(Cl)s1 | active: 5.01 µM | 
68 | COc1ccc(C(NC(=O)C2CCN(CCOc3ccc(Cl)cc3Cl)CC2)c2ccccc2C)cn1 (centres undefined) | inconclusive: 70.8 µM [inhibitor, partial curve, poor fit] | 
69 | CCOC(=O)c1ccc(N2CCN(C(C)=O)CC2)c(NC(=O)c2ccc(CC)cc2)c1 | inconclusive: 39.8 µM [inhibitor, partial curve, poor fit] | 

Some of the entries above, set out differently:
CCn1nc(C)cc1C(=O)NCC1Cc2cccc(-c3cccnc3)c2O1 (centres undefined)
  activity change, negative = inhibition: inactive: 2.94%
COc1cccc(Cn2cnc3c(NS(=O)(=O)c4ccc(Cl)cc4Cl)c(C)c(C)cc32)c1
  Potency: inconclusive: 12.6 µM [inhibitor, full curve, poor fit]
